PubChem BioAssay AID1224828 | NIAID, 2016
In all, the deposit lists about 17,000 reagents; below is a random part of them. 762 of them (4.5%) were called active. 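Active calls include both raised and lowered p65 entry, mostly lowered; wells with fewer than 50 cells lack a z-score.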 The raw values are shown without normalisation. Reagent sequences are not shown.

- Screen: 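Regulators linking TLR4 signalling to p65 nuclear translocation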 (primary screen)
- Cell system: mouse RAW264.7 G9 macrophage reporter cells (GFP-p65, Tnf promoter-mCherry)
- Knock-down reagent: siRNA pool against mouse genes, 100 nM
- Time to read-out: 2 days siRNA transfection, then 40 min LPS before fixation
- Conditions: LPS (Salmonella minnesota R595) at 10 ng/ml
- Read-out: 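Imaged p65 nuclear translocation ratio, normalised to the plate median, converted to robust z-scores and averaged across two replicates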
- Reading the numbers: p65 translocation robust z-score: higher = more nuclear NF-kappaB p65 after LPS than the plate median; nuclear/cytoplasmic p65 ratio: higher = more nuclear NF-kappaB p65
- Active means: 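Active if robust z is above 3.3 (negative regulators) or below -1.56, the Tlr4 control median (positive regulators); activity score 50 or more; control wells not called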
- Calls: active = hit (p65 shift raised or lowered); inactive = no clear change

Emilin3 (elastin microfibril interfacer 3) [SID315481019] scored nuclear/cytoplasmic p65 ratio, rep 1 = 1.46; nuclear/cytoplasmic p65 ratio, rep 2 = 1.31; low cell count flag fewer than 50 cells per well; well left out of scoring; inactive.
For Pvalb (parvalbumin) [SID315468831], the values are p65 translocation robust z-score -0.14; nuclear/cytoplasmic p65 ratio, rep 1 = 1.22; nuclear/cytoplasmic p65 ratio, rep 2 = 1.2; low cell count flag enough cells to score; inactive.
Silencing of Nmb (neuromedin B) [SID315473380] came out at: p65 translocation robust z-score -0.65; nuclear/cytoplasmic p65 ratio, rep 1 = 1.37; nuclear/cytoplasmic p65 ratio, rep 2 = 1.33; low cell count flag enough cells to score; inactive.
After knock-down of Xlr3c (X-linked lymphocyte-regulated 3C) [SID315470061], the record shows p65 translocation robust z-score 0.51; nuclear/cytoplasmic p65 ratio, rep 1 = 1.43; nuclear/cytoplasmic p65 ratio, rep 2 = 1.35; low cell count flag enough cells to score; inactive.
Or52h7 (olfactory receptor family 52 subfamily H member 7) [SID315480655] scored p65 translocation robust z-score 2.32; nuclear/cytoplasmic p65 ratio, rep 1 = 1.42; nuclear/cytoplasmic p65 ratio, rep 2 = 1.54; low cell count flag enough cells to score; inactive.
With knock-down of Slc19a2 [SID315477074], the record shows p65 translocation robust z-score 1.49; nuclear/cytoplasmic p65 ratio, rep 1 = 1.75; nuclear/cytoplasmic p65 ratio, rep 2 = 1.71; low cell count flag enough cells to score; inactive.
Cyp2b19 (cytochrome P450, family 2, subfamily b, polypeptide 19) [SID315466227] scored p65 translocation robust z-score 0.29; nuclear/cytoplasmic p65 ratio, rep 1 = 1.61; nuclear/cytoplasmic p65 ratio, rep 2 = 1.84; low cell count flag enough cells to score; inactive.
Silencing of Cebpg (CCAAT/enhancer binding protein gamma) [SID315465932] gave: p65 translocation robust z-score 1.23; nuclear/cytoplasmic p65 ratio, rep 1 = 1.66; nuclear/cytoplasmic p65 ratio, rep 2 = 1.51; low cell count flag enough cells to score; inactive.
Depletion of Gm20555 (predicted gene, 20555) [SID315481486] resulted in: nuclear/cytoplasmic p65 ratio, rep 1 = 1.7; nuclear/cytoplasmic p65 ratio, rep 2 = 1.42; low cell count flag fewer than 50 cells per well; well left out of scoring; inactive.
With knock-down of Gdi1 (GDP dissociation inhibitor 1) [SID315466874] the results were p65 translocation robust z-score -1.64; nuclear/cytoplasmic p65 ratio, rep 1 = 1.31; nuclear/cytoplasmic p65 ratio, rep 2 = 1.18; low cell count flag enough cells to score; active.
Silencing of Ssr1 (signal sequence receptor, alpha) [SID315476610] gave: p65 translocation robust z-score 0.32; nuclear/cytoplasmic p65 ratio, rep 1 = 1.58; nuclear/cytoplasmic p65 ratio, rep 2 = 1.62; low cell count flag enough cells to score; inactive.
With knock-down of Cyria (CYFIP related Rac1 interactor A) [SID315475386], the screen gave p65 translocation robust z-score -0.55; nuclear/cytoplasmic p65 ratio, rep 1 = 1.52; nuclear/cytoplasmic p65 ratio, rep 2 = 1.67; low cell count flag enough cells to score; inactive.

Called active (from the list above):
Gdi1 (GDP dissociation inhibitor 1) [SID315466874]: p65 translocation robust z-score = -1.64; nuclear/cytoplasmic p65 ratio, rep 1 = 1.31; nuclear/cytoplasmic p65 ratio, rep 2 = 1.18; low cell count flag = enough cells to score; activity call = active
